# According to patent publication US12318503B2, “Functional amyloid hydrogels and applications thereof” (Indian Institute of Technology Bombay, priority 2019, dated 2025):
# At least one peptide structure holds a part that was inferred or is arguable (an end, a ring closure or a residue). Some compounds share one wording; it may come from a single statement. Some entries share one result that the patent states for a list of compounds. Where a SMILES comes first, the peptide text is derived from it. The star is where a group is joined. Fmoc = O=C(OCC1c2ccccc2-c2ccccc21)*
# Legend:
# L929 cells = experiment: In vitro scratch (wound healing) assay; type: cell-based; conditions: scratch covered with hydrogel; medium with 1% FBS
# [1] = system: STZ-induced diabetic rat model; experiment: Insulin delivery from hydrogels in diabetic rats; conditions: subcutaneous
# Description: The functional amyloid hydrogel encapsulated with insulin (5 mg/ml) was administered subcutaneously to the diabetic rat model. Blood samples were collected from the tail veins of rats prior to drug administration and at different time intervals after dosing. Diabetes model rats were fasted for 12 h prior to and remained fasted during the experiment, but were allowed water ad libitum. The blood glucose level was checked biochemically at regular interval. The insulin released from the hydrogel in vivo was also monitored. To do that, blood samples were centrifuged (10,000 rpm, 4° C. for 15 min) and subsequently quantified using an appropriate insulin ELISA kit and during various time intervals.
# [2] = Oscillatory and step-strain rheology of the hydrogels; type: physicochemical; conditions: for storage modulus: at 100 Hz frequency, 37° C.; for storage modulus (G′) versus loss modulus (G″): oscillatory rheology; for thixotropic nature (state after high shear stress): γ=100%, ν=1 Hz, gel state regained at γ=0.05%
smiles,measurement,setting,value
"CC[C@H](C)[C@H](NC(=O)[C@H](CCC(=O)O)NC(=O)[C@H](CCSC)NC(=O)[C@H](CC(C)C)NC(=O)[C@H](CCCCN)NC(=O)OCC1c2ccccc2-c2ccccc21)C(=O)O [FA1, KLMEI] (Fmoc-KLMEI-OH; N-terminus and C-terminus assumed)",time until area of scratch completely filled by cell migration,L929 cells,≤ 36 h
same,blood glucose level,[1],did not result in lowering
same,storage modulus,[2],~1000 Pa
same,storage modulus (G′) versus loss modulus (G″),[2],storage modulus higher than the loss modulus
same,thixotropic nature (state after high shear stress),[2],readily transform into solution state
"CC[C@H](C)[C@H](NC(=O)[C@H](CC(=O)O)NC(=O)[C@H](CC(C)C)NC(=O)[C@H](CC(C)C)NC(=O)[C@H](CCCCN)NC(=O)OCC1c2ccccc2-c2ccccc21)C(=O)O [FA2, KLLDI] (Fmoc-KLLDI-OH; N-terminus and C-terminus assumed)",time until area of scratch completely filled by cell migration,L929 cells,≤ 36 h
same,storage modulus,[2],~1070 Pa
same,storage modulus (G′) versus loss modulus (G″),[2],storage modulus higher than the loss modulus
same,thixotropic nature (state after high shear stress),[2],readily transform into solution state
